Drawing on the supplement of paper PMC10849652, this text covers log2 fold change for 26 targets.

By UniProt entry, the sequences of proteins in these tests, tags left out. Where a name states a change or a piece, a line headed by the entry shows the natural chain unless it says otherwise.
UniProt H0Y354, whole entry, looked up: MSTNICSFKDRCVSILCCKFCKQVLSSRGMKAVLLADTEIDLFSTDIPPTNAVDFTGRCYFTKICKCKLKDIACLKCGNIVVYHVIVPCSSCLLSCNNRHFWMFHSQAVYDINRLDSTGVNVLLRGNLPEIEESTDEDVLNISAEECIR
UniProt Q96PV7: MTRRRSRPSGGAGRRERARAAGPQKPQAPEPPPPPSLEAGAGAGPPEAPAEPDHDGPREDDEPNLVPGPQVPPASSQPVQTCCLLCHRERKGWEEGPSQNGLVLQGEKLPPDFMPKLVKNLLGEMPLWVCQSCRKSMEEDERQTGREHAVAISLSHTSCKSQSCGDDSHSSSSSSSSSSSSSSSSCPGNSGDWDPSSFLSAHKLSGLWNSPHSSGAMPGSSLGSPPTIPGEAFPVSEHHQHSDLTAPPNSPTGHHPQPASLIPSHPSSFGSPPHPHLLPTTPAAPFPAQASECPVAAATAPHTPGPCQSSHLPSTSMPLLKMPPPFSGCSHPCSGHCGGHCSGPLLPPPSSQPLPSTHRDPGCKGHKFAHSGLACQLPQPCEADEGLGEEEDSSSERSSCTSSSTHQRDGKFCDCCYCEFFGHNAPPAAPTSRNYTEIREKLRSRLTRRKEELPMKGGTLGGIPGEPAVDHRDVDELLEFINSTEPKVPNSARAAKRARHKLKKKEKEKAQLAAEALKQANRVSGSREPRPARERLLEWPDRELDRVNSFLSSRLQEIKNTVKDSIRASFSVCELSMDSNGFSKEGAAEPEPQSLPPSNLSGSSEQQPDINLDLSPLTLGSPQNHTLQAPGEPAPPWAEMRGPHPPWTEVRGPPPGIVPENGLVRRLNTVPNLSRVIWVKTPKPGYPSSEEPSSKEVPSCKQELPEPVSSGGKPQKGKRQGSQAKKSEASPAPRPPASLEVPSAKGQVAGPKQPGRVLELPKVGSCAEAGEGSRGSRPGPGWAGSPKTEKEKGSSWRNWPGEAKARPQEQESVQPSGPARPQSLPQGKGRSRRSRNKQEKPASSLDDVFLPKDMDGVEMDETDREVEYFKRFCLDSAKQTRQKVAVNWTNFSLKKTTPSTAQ
UniProt O94905: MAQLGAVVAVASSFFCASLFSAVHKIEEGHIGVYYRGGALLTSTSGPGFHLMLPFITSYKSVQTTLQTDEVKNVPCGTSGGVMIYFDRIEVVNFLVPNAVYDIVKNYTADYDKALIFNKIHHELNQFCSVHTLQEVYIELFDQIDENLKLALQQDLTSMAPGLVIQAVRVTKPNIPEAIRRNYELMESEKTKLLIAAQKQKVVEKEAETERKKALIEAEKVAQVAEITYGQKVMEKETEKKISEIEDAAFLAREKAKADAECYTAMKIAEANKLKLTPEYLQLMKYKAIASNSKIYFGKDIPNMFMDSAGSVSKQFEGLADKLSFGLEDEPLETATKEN
UniProt Q9H0X4: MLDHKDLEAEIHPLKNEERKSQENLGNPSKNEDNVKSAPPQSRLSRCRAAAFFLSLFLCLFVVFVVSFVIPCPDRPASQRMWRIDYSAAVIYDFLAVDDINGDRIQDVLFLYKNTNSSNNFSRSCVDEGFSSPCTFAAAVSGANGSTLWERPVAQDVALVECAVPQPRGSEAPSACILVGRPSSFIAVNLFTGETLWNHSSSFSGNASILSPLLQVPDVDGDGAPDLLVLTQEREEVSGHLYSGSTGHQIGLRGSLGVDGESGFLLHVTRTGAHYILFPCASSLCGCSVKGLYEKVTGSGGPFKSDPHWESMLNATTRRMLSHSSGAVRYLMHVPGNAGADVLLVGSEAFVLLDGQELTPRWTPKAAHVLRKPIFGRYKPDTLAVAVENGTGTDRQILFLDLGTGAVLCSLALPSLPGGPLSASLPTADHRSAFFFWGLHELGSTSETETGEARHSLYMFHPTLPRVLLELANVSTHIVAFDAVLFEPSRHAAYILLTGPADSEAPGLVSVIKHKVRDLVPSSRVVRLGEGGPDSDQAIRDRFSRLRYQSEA
UniProt Q9NQT4, whole entry, looked up: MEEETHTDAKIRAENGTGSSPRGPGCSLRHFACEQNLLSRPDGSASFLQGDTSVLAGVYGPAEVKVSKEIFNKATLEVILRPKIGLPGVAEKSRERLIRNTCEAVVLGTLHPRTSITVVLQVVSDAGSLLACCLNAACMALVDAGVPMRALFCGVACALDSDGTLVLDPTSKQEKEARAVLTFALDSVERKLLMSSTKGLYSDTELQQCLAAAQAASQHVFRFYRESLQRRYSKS
UniProt P13804: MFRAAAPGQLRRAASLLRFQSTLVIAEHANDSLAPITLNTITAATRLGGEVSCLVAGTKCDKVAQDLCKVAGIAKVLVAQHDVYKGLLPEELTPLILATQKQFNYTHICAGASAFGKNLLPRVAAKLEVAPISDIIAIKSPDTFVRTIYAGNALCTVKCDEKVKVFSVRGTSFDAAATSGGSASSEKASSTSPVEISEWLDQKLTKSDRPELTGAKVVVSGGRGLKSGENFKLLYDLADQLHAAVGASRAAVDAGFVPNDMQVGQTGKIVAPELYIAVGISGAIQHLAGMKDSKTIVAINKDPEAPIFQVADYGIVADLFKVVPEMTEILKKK
UniProt Q5W0V3: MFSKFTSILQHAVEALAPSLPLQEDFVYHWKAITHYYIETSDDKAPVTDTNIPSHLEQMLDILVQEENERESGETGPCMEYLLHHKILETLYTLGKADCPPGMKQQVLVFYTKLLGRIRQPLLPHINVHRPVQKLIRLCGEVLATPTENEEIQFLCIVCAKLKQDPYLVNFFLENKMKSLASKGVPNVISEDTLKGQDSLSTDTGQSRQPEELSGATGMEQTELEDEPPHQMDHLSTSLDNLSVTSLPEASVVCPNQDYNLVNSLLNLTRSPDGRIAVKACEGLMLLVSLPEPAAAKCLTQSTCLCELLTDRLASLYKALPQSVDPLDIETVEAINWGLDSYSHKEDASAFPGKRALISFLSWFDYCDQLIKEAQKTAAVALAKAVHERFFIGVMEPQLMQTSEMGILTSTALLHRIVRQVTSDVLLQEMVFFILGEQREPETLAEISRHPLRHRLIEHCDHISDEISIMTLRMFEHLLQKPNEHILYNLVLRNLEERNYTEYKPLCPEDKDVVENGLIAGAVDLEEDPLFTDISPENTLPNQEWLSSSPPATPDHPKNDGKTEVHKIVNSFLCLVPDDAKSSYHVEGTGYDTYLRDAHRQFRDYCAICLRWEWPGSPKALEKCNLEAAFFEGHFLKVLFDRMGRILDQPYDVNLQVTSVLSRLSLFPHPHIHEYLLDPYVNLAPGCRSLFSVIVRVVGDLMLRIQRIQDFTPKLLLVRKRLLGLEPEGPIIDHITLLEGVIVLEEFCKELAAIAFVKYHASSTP
UniProt Q9H098: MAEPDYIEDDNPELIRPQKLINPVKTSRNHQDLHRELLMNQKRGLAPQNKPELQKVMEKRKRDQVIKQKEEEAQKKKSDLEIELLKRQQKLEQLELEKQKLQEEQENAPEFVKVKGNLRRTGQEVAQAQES
UniProt Q5JUQ0: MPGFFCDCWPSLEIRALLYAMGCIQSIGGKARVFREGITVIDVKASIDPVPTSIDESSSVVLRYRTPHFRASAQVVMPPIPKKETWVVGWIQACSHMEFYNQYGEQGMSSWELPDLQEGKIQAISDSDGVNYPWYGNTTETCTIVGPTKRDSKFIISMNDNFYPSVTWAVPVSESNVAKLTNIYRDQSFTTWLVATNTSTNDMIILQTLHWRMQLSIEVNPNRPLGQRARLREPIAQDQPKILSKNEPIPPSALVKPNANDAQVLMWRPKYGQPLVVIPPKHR
UniProt Q86YB8: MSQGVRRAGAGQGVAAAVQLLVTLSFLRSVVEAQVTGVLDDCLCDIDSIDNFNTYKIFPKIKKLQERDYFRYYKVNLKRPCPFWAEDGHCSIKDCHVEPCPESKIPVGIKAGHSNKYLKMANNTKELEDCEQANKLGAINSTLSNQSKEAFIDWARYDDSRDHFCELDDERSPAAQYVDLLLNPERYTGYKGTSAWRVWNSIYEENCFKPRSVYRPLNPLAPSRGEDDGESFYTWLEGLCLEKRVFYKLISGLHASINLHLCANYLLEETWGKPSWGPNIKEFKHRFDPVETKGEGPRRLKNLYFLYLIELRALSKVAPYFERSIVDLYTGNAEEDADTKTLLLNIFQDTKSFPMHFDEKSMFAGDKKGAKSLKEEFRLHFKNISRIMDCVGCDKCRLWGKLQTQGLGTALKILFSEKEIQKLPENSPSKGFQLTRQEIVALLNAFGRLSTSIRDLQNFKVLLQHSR
UniProt Q9H8W3: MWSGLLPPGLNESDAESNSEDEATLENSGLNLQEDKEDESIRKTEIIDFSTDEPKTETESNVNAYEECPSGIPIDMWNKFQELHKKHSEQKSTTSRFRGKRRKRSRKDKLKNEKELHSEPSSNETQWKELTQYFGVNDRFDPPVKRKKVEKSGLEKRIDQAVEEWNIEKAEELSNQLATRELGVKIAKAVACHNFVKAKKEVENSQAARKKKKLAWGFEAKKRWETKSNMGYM
UniProt Q9UQ84: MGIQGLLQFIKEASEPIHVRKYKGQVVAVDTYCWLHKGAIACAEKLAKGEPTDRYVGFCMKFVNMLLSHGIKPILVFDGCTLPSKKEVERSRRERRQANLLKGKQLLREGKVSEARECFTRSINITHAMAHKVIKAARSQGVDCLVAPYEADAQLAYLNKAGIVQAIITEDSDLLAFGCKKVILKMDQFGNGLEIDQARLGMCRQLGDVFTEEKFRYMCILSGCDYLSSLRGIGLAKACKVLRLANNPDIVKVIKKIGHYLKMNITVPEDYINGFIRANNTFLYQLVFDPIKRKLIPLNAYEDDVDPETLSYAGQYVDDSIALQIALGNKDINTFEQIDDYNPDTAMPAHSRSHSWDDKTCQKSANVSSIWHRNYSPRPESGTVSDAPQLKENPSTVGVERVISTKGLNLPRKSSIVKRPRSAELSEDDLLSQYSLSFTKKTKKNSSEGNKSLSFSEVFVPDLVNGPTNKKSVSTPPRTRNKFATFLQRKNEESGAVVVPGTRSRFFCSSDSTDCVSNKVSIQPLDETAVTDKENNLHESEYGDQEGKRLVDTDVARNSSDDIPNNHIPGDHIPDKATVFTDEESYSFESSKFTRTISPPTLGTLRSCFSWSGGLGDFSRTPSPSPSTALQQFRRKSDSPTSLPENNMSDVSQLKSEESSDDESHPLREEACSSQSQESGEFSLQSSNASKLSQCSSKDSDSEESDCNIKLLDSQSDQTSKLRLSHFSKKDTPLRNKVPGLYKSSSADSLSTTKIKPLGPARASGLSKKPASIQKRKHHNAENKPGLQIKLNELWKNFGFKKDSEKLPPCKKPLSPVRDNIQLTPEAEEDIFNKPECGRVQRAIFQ
UniProt Q9NPD3, whole entry, looked up: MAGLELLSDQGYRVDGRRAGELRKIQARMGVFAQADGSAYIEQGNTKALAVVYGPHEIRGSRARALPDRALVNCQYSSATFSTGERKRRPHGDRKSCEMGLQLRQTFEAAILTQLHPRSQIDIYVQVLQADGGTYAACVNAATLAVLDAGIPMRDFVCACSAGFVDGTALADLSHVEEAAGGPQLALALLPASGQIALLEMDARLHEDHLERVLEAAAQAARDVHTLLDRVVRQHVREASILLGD
UniProt Q6IPR1: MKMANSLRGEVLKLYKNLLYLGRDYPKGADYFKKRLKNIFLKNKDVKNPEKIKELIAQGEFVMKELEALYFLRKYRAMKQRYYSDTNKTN
UniProt Q9BYI3: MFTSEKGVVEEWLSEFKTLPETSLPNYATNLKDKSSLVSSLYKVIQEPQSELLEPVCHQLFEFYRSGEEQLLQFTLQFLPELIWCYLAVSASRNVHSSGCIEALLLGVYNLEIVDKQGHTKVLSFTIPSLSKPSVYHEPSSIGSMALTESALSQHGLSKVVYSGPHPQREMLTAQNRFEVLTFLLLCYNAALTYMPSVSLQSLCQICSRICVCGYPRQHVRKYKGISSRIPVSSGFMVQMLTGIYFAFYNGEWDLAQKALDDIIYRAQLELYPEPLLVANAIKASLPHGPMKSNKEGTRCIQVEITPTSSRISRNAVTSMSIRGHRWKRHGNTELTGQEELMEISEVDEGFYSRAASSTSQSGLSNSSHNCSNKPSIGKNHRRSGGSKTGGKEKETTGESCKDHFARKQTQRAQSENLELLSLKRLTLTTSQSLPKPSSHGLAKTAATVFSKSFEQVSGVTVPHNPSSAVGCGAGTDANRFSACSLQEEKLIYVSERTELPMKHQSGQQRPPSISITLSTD
UniProt O75063: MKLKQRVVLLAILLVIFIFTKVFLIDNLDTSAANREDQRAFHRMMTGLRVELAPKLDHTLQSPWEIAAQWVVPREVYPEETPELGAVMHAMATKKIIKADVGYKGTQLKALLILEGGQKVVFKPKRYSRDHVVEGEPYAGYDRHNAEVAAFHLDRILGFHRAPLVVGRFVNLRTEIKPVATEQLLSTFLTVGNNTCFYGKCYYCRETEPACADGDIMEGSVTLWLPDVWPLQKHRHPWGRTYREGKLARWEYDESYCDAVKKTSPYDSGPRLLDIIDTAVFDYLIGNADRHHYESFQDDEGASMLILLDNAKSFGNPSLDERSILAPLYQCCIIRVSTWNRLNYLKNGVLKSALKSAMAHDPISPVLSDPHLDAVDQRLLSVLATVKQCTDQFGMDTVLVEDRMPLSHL

The other results are listed elsewhere or left out.

Holding throughout (assay): log2 fold change, soluble protein after heating vs DMSO (PISA); higher = thermal stabilisation; K562 lysate, 10 uM; active = over 0.2 and 3.5 SD of the protein, either way, in both replicates (recomputed)
Compound in assay [1]: NCC(=O)Nc1ccc(-n2nc(C(F)(F)F)cc2-c2ccc3c(ccc4ccccc43)c2)cc1
A digest of the protocol:
(§1)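 K562 pellets were dounce-homogenised in PBS pH 7.4 with 1 mM MgCl2, and the crude extract at 1 mg/mL protein was treated with 10 μM compound for 30 min. Aliquots were heated for 3 min across 48°C-58°C, pooled, and brought to 0.5% NP-40 at 4°C; soluble protein was the supernatant after 21,000xg for 90 min. Soluble protein was quantified by TMTpro 16plex LC-MS/MS with channel sums equalised, and reported as log2 fold change in thermal stability against DMSO controls, with values from duplicates.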

Compound in a further assay: O=C(CCCCCCC(=O)Nc1ccccc1)NO [vorinostat]
Put shortly: as §1

Compound in another assay: O=C(O)c1ccc2c(c1)nc(Nc1cccc(Cl)c1)c1ccncc12 [silmitasertib]
A digest of the protocol: as §1

Compound in assay [2]: O=C1NC(=O)C(c2cnc3ccccn23)=C1c1cn2c3c(cc(F)cc13)CN(C(=O)N1CCCCC1)CC2
A digest of the protocol:
as §1

Compound in a further assay: c1cn2cc(-c3ccc4cn[nH]c4c3)nc(Nc3ccc(N4CCOCC4)cc3)c2n1 [entospletinib]
A digest of the protocol: as §1

As to ETNK1 (UniProt Q9HBU6), the log2 fold change in assay [1] was inactive: 0.032; with vorinostat it was inactive: -0.029; with silmitasertib, inactive: -0.012; in assay [2] it was inactive: 0.084; with entospletinib it was inactive: 0.011.

For FAM72C (UniProt H0Y354), the log2 fold change in assay [1] was inactive: -0.169.

Consider FAM193B (UniProt Q96PV7), for which the log2 fold change is inactive: -0.17 in assay [1], inactive: -0.017 with vorinostat, inactive: 0.047 with silmitasertib and inactive: 0.018 in assay [2].

ERLIN2 (UniProt O94905): the log2 fold change in assay [1] was inactive: -0.012; in the assay with vorinostat, inactive: 0.032; with silmitasertib, inactive: 0.019; in assay [2], inactive: -0.005; with entospletinib it was inactive: 0.016.

As to FAM234A (UniProt Q9H0X4), the log2 fold change in assay [1] was inactive: 0.074; with vorinostat it was inactive: 0.112; with silmitasertib, inactive: -0.055; in assay [2], inactive: -0.007; with entospletinib, inactive: -0.02.

As for EXOSC5 (UniProt Q9NQT4), the log2 fold change in assay [1] is inactive: 0.012; with vorinostat it was inactive: 0.033; with silmitasertib, inactive: -0.001; in assay [2], inactive: -0.071; with entospletinib, inactive: -0.013.

For EXTL3 (UniProt O43909), the log2 fold change in assay [1] is inactive: -0.104; with vorinostat, inactive: 0.153; with silmitasertib, inactive: 0.055; in assay [2] it was inactive: -0.062.

Regarding FAM120A isoform 6 (UniProt Q9NZB2), the log2 fold change is inactive: 0.012 in assay [1]; inactive: -0.134 with vorinostat; inactive: -0.016 with silmitasertib; inactive: 0.005 in assay [2]; inactive: 0.012 with entospletinib.

Regarding ETFA (UniProt P13804), the log2 fold change in assay [1] was inactive: 0.032; with vorinostat, inactive: 0.046; in the assay with silmitasertib it was inactive: -0.006; in assay [2] it was inactive: 0.01; with entospletinib, inactive: -0.009.

For FAM160B1 (UniProt Q5W0V3), the log2 fold change is inactive: 0.006 in assay [1]; inactive: -0.071 in the assay with vorinostat; inactive: 0.01 with silmitasertib; inactive: 0.018 in assay [2]; inactive: 0.039 in the assay with entospletinib.

Take FAM107B isoform 2 (UniProt Q9H098): the log2 fold change in assay [1] is inactive: 0.022; with vorinostat, inactive: 0.117; with silmitasertib, inactive: -0.09; in assay [2] it was inactive: 0.04; in the assay with entospletinib, inactive: -0.032.

Regarding FAHD1 (UniProt Q6P587), the log2 fold change was inactive: 0.17 in assay [1]; inactive: 0.092 with vorinostat; inactive: -0.029 with silmitasertib; inactive: 0.048 in assay [2]; inactive: 0.011 with entospletinib.

FAM78A (UniProt Q5JUQ0): the log2 fold change in assay [1] is inactive: 0.032; with vorinostat it was inactive: 0.107; with silmitasertib, inactive: 0.015; in assay [2], inactive: -0.018; with entospletinib it was inactive: 0.028.

Turning to ERO1B (UniProt Q86YB8), the log2 fold change in assay [1] was inactive: 0.095; in the assay with vorinostat, inactive: 0.047; in the assay with silmitasertib, inactive: -0.019; in assay [2], inactive: 0; with entospletinib, inactive: -0.066.

Regarding F2RL3 (UniProt Q96RI0), the log2 fold change in assay [1] was inactive: -0.035; in the assay with vorinostat, inactive: 0.079; with silmitasertib it was inactive: -0.028.

On to FAM204A (UniProt Q9H8W3), for which the log2 fold change in assay [1] is inactive: -0.057; in the assay with vorinostat, inactive: -0.211; in the assay with silmitasertib, inactive: -0.095; in assay [2], inactive: 0.044.

With FAF2 (UniProt Q96CS3), the log2 fold change in assay [1] was inactive: 0.051; with vorinostat it was inactive: -0.04; with silmitasertib it was inactive: 0.043; in assay [2], inactive: 0.009; in the assay with entospletinib, inactive: -0.039.

For EXO1 (UniProt Q9UQ84), the log2 fold change in assay [1] is inactive: 0.051; with vorinostat it was inactive: -0.043; with silmitasertib, inactive: 0.17; in assay [2], inactive: -0.037.

Take ESS2 (UniProt Q96DF8): the log2 fold change in assay [1] is inactive: 0.08; in the assay with vorinostat, inactive: 0; with silmitasertib, inactive: -0.04; in assay [2] it was inactive: -0.007; with entospletinib it was inactive: -0.006.

Take EXOSC4 (UniProt Q9NPD3): the log2 fold change is inactive: 0.027 in assay [1]; inactive: 0.138 in the assay with vorinostat; inactive: 0.007 with silmitasertib; inactive: 0.008 in assay [2]; inactive: -0.008 with entospletinib.

On to F5 (UniProt P12259), for which the log2 fold change was inactive: -0.074 in assay [1]; inactive: 0.105 with vorinostat; inactive: -0.002 with silmitasertib; inactive: 0.034 in assay [2]; inactive: 0.049 in the assay with entospletinib.

ETFRF1 (UniProt Q6IPR1): the log2 fold change was inactive: 0.03 in assay [1], active: 0.24 in the assay with vorinostat, inactive: -0.043 with silmitasertib and inactive: 0.051 in assay [2].

On to EXOC8 (UniProt Q8IYI6), for which the log2 fold change was inactive: 0.029 in assay [1]; inactive: -0.129 in the assay with vorinostat; inactive: 0.006 with silmitasertib; inactive: 0.004 in assay [2]; inactive: -0.009 in the assay with entospletinib.

On to FAM126A (UniProt Q9BYI3), for which the log2 fold change in assay [1] is inactive: -0.085; with vorinostat it was inactive: -0.378; in the assay with silmitasertib it was inactive: 0.112; in assay [2], inactive: 0.11.

For FAM20B (UniProt O75063), the log2 fold change in assay [1] was inactive: 0.011; in the assay with vorinostat, inactive: 0.101; with silmitasertib, inactive: -0.003; in assay [2], inactive: -0.019; with entospletinib it was inactive: -0.005.

Take ERVK3-1, A0A0U1RQV1: the log2 fold change in assay [1] is inactive: 0.077; with vorinostat, inactive: 0.044; with silmitasertib it was inactive: -0.062; in assay [2] it was inactive: 0.047; with entospletinib, inactive: 0.017.
